Source: PubChem BioAssay AID1259254 (NCATS, 2017)
In all, the deposit lists about 59,000 reagents; below is a random part of them. Of all reagents, about 1,550 (2.6%) were called active. 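G2 share is only a proxy for re-replication; each gene was hit by three separate siRNAs, and active genes were retested.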 Raw values are not corrected between plates. The numbers tell different reagents against one gene apart. The record does not give: the amount of reagent.

Purpose: 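Finding genes that stop cells copying their DNA twice in one cycle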 (primary screen)
Cells: human HCT116 colorectal cancer cells
Reagents: single siRNA against human genes
Duration: 3 days
Measurement: 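Imaged Hoechst DNA stain sorts each cell into a cycle phase by DNA amount; per plate, G2 fraction set to 0% for non-targeting and 100% for GMNN siRNA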
Direction: G2 robust z-score and G2 cells, % of GMNN control: higher = more G2 cells, more excess DNA replication; raw share of cells in G2: higher = larger share of cells with G2 DNA content
Hit rule: 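Active siRNAs have a G2 robust z of 5 or more median absolute deviations over the median, which in these data means about 38% or higher of GMNN control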

Target gene | reagent | G2 robust z-score | G2 cells, % of GMNN control | raw share of cells in G2 (%) | call
TTC27 (tetratricopeptide repeat domain 27) | 1 | 0.652 | 7.55 | 7.43 | inactive
TTC27 (tetratricopeptide repeat domain 27) | 2 | -0.0906 | 2.33 | 5.1 | inactive
TTC27 (tetratricopeptide repeat domain 27) | 3 | 0.536 | 6.74 | 5.29 | inactive
CTNNBL1 (catenin beta like 1) | 1 | -0.441 | -0.132 | 4.29 | inactive
CTNNBL1 (catenin beta like 1) | 2 | -0.663 | -1.7 | 3.65 | inactive
CTNNBL1 (catenin beta like 1) | 3 | -0.503 | -0.569 | 2.85 | inactive
FAM245A (family with sequence similarity 245 member A) | 1 | 0.196 | 4.35 | 5.19 | inactive
FAM245A (family with sequence similarity 245 member A) | 2 | -0.146 | 1.94 | 3.56 | inactive
FAM245A (family with sequence similarity 245 member A) | 3 | -0.345 | 0.542 | 3.81 | inactive
EAF2 (ELL associated factor 2) | 1 | -0.0831 | 2.38 | 5.44 | inactive
EAF2 (ELL associated factor 2) | 2 | 1.62 | 14.4 | 10.1 | inactive
EAF2 (ELL associated factor 2) | 3 | -0.753 | -2.33 | 2.39 | inactive
WIZ (WIZ zinc finger) | 1 | -1.23 | -5.67 | 3.3 | inactive
WIZ (WIZ zinc finger) | 2 | -0.587 | -1.16 | 3.94 | inactive
WIZ (WIZ zinc finger) | 3 | -0.149 | 1.92 | 4.92 | inactive
LOC728283 (retired record) | 1 | -0.323 | 0.697 | 3.81 | inactive
LOC728283 (retired record) | 2 | -1.24 | -5.75 | 0.846 | inactive
LOC728283 (retired record) | 3 | -0.983 | -3.95 | 2.1 | inactive
ZNF430 (zinc finger protein 430) | 1 | -0.673 | -1.77 | 2.17 | inactive
ZNF430 (zinc finger protein 430) | 2 | 0.275 | 4.91 | 8.13 | inactive
ZNF430 (zinc finger protein 430) | 3 | 0.517 | 6.6 | 5.71 | inactive
ZFP41 (ZFP41 zinc finger protein) | 1 | 0.0351 | 3.21 | 4.2 | inactive
ZFP41 (ZFP41 zinc finger protein) | 2 | 1.4 | 12.8 | 7.62 | inactive
ZFP41 (ZFP41 zinc finger protein) | 3 | 0.0717 | 3.47 | 4.74 | inactive
CFAP54 (cilia and flagella associated protein 54) | 1 | 0.232 | 4.6 | 4.67 | inactive
CFAP54 (cilia and flagella associated protein 54) | 2 | 0.763 | 8.34 | 6.62 | inactive
CFAP54 (cilia and flagella associated protein 54) | 3 | -0.147 | 1.93 | 3.51 | inactive
CFAP54 (cilia and flagella associated protein 54) | 4 | -0.429 | -0.049 | 3.97 | inactive
CFAP54 (cilia and flagella associated protein 54) | 5 | 0.237 | 4.63 | 5.29 | inactive
CFAP54 (cilia and flagella associated protein 54) | 6 | -0.137 | 2 | 4.99 | inactive
CFAP54 (cilia and flagella associated protein 54) | 7 | -0.0648 | 2.51 | 4.63 | inactive
CFAP54 (cilia and flagella associated protein 54) | 8 | 0.655 | 7.58 | 6.7 | inactive
CFAP54 (cilia and flagella associated protein 54) | 9 | 0.81 | 8.67 | 8.35 | inactive
BRDTP1 (bromodomain testis associated pseudogene 1) | 1 | -0.391 | 0.22 | 3.21 | inactive
BRDTP1 (bromodomain testis associated pseudogene 1) | 2 | 0.882 | 9.17 | 7.13 | inactive
BRDTP1 (bromodomain testis associated pseudogene 1) | 3 | 2.26 | 18.8 | 10 | inactive
ARF4 (ARF GTPase 4) | 1 | -0.302 | 0.84 | 4.3 | inactive
ARF4 (ARF GTPase 4) | 2 | 1.61 | 14.3 | 10.2 | inactive
ARF4 (ARF GTPase 4) | 3 | 0.234 | 4.62 | 6.29 | inactive
SULT2B1 (sulfotransferase family 2B member 1) | 1 | -1.29 | -6.1 | 3.63 | inactive
SULT2B1 (sulfotransferase family 2B member 1) | 2 | 1.47 | 13.3 | 8.37 | inactive
SULT2B1 (sulfotransferase family 2B member 1) | 3 | -0.718 | -2.09 | 3.83 | inactive
MSANTD1 (Myb/SANT DNA binding domain containing 1) | 1 | 0.689 | 7.82 | 6.67 | inactive
MSANTD1 (Myb/SANT DNA binding domain containing 1) | 2 | 0.826 | 8.78 | 7.1 | inactive
MSANTD1 (Myb/SANT DNA binding domain containing 1) | 3 | 2.58 | 21.2 | 12.7 | inactive
KLHL36 (kelch like family member 36) | 1 | -0.611 | -1.33 | 2.01 | inactive
KLHL36 (kelch like family member 36) | 2 | 2.99 | 24 | 14.4 | inactive
KLHL36 (kelch like family member 36) | 3 | 0.0294 | 3.17 | 5.69 | inactive
SOX9-AS1 (SOX9 antisense RNA 1) | 1 | 0.649 | 7.53 | 5.92 | inactive
SOX9-AS1 (SOX9 antisense RNA 1) | 2 | -0.689 | -1.88 | 2.23 | inactive
SOX9-AS1 (SOX9 antisense RNA 1) | 3 | -1.09 | -4.69 | 1.83 | inactive
SOX9-AS1 (SOX9 antisense RNA 1) | 4 | 2.97 | 23.9 | 13.3 | inactive
SOX9-AS1 (SOX9 antisense RNA 1) | 5 | -0.573 | -1.07 | 3.14 | inactive
SOX9-AS1 (SOX9 antisense RNA 1) | 6 | -0.505 | -0.582 | 2.67 | inactive
IFNA8 (interferon alpha 8) | 1 | 0.165 | 4.13 | 5.14 | inactive
IFNA8 (interferon alpha 8) | 2 | 2.12 | 17.9 | 13.7 | inactive
IFNA8 (interferon alpha 8) | 3 | 0.359 | 5.49 | 6.1 | inactive
UTP3 (UTP3 small subunit processome component) | 1 | 0.232 | 4.6 | 6.25 | inactive
UTP3 (UTP3 small subunit processome component) | 2 | 2.88 | 23.2 | 16.6 | inactive
UTP3 (UTP3 small subunit processome component) | 3 | 2.21 | 18.5 | 11.1 | inactive
PPWD1 (peptidylprolyl isomerase domain and WD repeat containing 1) | 1 | 1.8 | 15.6 | 12.6 | inactive
PPWD1 (peptidylprolyl isomerase domain and WD repeat containing 1) | 2 | 1.91 | 16.4 | 9.64 | inactive
PPWD1 (peptidylprolyl isomerase domain and WD repeat containing 1) | 3 | 0.609 | 7.26 | 6.35 | inactive
CTHRC1 (collagen triple helix repeat containing 1) | 1 | -0.535 | -0.797 | 3.77 | inactive
CTHRC1 (collagen triple helix repeat containing 1) | 2 | -0.382 | 0.278 | 3.41 | inactive
CTHRC1 (collagen triple helix repeat containing 1) | 3 | -0.63 | -1.47 | 1.39 | inactive
HLA-DQA1 (major histocompatibility complex, class II, DQ alpha 1) | 1 | -1.04 | -4.32 | 3.27 | inactive
HLA-DQA1 (major histocompatibility complex, class II, DQ alpha 1) | 2 | 0.288 | 5 | 5.92 | inactive
HLA-DQA1 (major histocompatibility complex, class II, DQ alpha 1) | 3 | -0.801 | -2.67 | 2.48 | inactive
HLA-DQA1 (major histocompatibility complex, class II, DQ alpha 1) | 4 | 0.97 | 9.79 | 7.51 | inactive
HLA-DQA1 (major histocompatibility complex, class II, DQ alpha 1) | 5 | -0.384 | 0.268 | 3.61 | inactive
HLA-DQA1 (major histocompatibility complex, class II, DQ alpha 1) | 6 | 1.5 | 13.5 | 8.57 | inactive

Sorted by “G2 robust z-score” (high to low): some entries from above.
Target gene | reagent | G2 robust z-score | G2 cells, % of GMNN control | raw share of cells in G2 (%) | call
PPWD1 (peptidylprolyl isomerase domain and WD repeat containing 1) | 2 | 1.91 | 16.4 | 9.64 | inactive
PPWD1 (peptidylprolyl isomerase domain and WD repeat containing 1) | 3 | 0.609 | 7.26 | 6.35 | inactive
CTHRC1 (collagen triple helix repeat containing 1) | 2 | -0.382 | 0.278 | 3.41 | inactive
CTHRC1 (collagen triple helix repeat containing 1) | 1 | -0.535 | -0.797 | 3.77 | inactive
